The source of these data is patent US20230071019A1.

By UniProt entry, the sequences of proteins in these tests, tags left out. Residues count along the entry.
UniProt P02769, residues 25-607: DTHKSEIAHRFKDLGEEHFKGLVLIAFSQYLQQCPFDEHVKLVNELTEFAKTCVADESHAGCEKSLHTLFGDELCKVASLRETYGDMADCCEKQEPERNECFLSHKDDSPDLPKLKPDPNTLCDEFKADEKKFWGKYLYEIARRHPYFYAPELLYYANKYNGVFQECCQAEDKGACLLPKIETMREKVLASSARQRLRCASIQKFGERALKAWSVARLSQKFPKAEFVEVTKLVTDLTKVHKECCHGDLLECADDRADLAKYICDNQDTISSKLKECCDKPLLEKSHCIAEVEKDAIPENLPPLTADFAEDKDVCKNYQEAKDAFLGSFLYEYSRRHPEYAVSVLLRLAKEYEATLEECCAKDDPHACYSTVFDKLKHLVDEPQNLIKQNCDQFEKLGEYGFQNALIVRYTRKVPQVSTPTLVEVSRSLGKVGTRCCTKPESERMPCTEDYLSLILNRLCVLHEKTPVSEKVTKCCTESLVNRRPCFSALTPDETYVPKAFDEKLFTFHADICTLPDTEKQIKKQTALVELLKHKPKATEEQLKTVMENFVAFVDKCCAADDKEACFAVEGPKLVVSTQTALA

No constants are given. Whether binding was seen depends on the method and setting. Some results given as binding are weak or reduced against the parent protein; the word gives no strength.

The target of this assay is exatecan conjugated BSA (bovine) (UniProt P02769). Put plainly: SPR, exatecan-conjugated BSA on the chip. On the technique in general: Surface plasmon resonance follows binding to a sensor surface in real time, without labels.

B1: Anti-Exatecan sdAb TF7 clone (VHH)
VHH: QVQLQESGGGLAQPGGSLRVSCATSGFTFSSNYYISWVRQAPGRGLEWVSAINTGDGSTYYAHSVKGRFTISRDNAKNTLYLQMNSLKPEDTALYYCARSSLEGRIEKPYDYWGQGTQVTVSS
Turning to B1, the binding entry is “binds”.
